# Source: PubChem BioAssay AID2685 (National Center for Advancing Translational Sciences (NCATS), 2010)
# This is one part of the list. These are further read-outs of the screen, such as a control signal, another cell line or another target. No call is given for them. Most of these compounds were active or inconclusive in the main read-out, so they are no random draw. The note in brackets gives the kind of curve behind each potency; many fits are weak.
# Experiment: qHTS Assay for Lipid Storage Modulators in Drosophila S3 Cells;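 as to cell number change: cells counted by Cell Tracker Red CMTPX staining in the red channel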
# Settings: BODIPY lipid droplet fluorescence, 18-24 h; for cell number change: measured here: cell count max response, cells fed with added oleic acid
# Outline: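 Drosophila S3 cells got compounds at several concentrations plus oleic acid (400 uM solution). Laser-scanning cytometry with 488 nm excitation read lipid droplets at 500-530 nm and cells at 575-640 nm. Percent activity was relative to 20 uM Triacsin C.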
# [1] = measured here: cell number channel AC50, cells fed with added oleic acid
# [2] = measured here: lipid fluorescence (Fed channel) AC50, cells fed with added oleic acid
Structure (SMILES),cell number change [%],AC50 [1],AC50 [2]
Cc1ccc(S(=O)(=O)NCc2ccncc2)cc1C,-45.1,"8.2 µM [falling, partial curve]","9.2 µM [falling, partial curve]"
Cc1c(C(=O)NCc2ccccn2)oc2ccc(Br)cc12,–,–,"0.0326 µM [rising, full curve, poor fit]"
CC(C)c1ccc(CN(C(=O)c2cc3ccccc3oc2=O)C2CCS(=O)(=O)C2)cc1 (stereo unspecified),33.7,"3.26 µM [rising, full curve, poor fit]",–
Cc1cc(C(F)(F)F)n2ncc(-c3ccc(F)cc3)c2n1,109,"5.17 µM [rising, full curve]","2.31 µM [rising, partial curve]"
CC12CC3(C)CC(C)(C1)CC(C(=O)NC(=S)NC(C)(C)C)(C2)C3,-25.3,–,"1.16 µM [rising, full curve]"
CCCN(Cc1ccccc1)C(=S)Nc1cccc(C(F)(F)F)c1,30.1,"18.4 µM [rising, single point]",–
O=C(Nc1ccc2c(c1)OCO2)c1cccc(Cl)c1,4.52,–,"18.4 µM [rising, partial curve]"
CC(=O)c1ccc(OCCCC(=O)Nc2cc(S(=O)(=O)N3CCCCC3)ccc2C)cc1,–,"0.291 µM [rising, partial curve, poor fit]",–
Clc1ccccc1Cn1nnc2c(NCC3CC3)ncnc21,-21.5,–,"18.4 µM [falling, single point]"
C=CCCC(=O)N1CCCC(Cc2cccc(Cl)c2)(C(=O)OCC)C1 (stereo unspecified),20.3,–,–
COc1ccc(C(C(=O)NC2CCCC2)N(C(=O)c2snc(C(N)=O)c2N)c2ccccc2OC)cc1OC (stereo unspecified),-10.3,–,"29.1 µM [falling, single point]"
CCCCN1/C(=C/c2ccc3ccccc3[n+]2CC)Sc2ccccc21,-49.8,"10.3 µM [falling, partial curve]","3.26 µM [falling, full curve]"
CC1CN(C(=S)Nc2ccc(Cl)cc2)CC(C)O1 (stereo unspecified),-6.08,–,–
CCN1C(=O)c2ccc(C(=O)Nc3nccs3)cc2C1=O,–,–,"6.51 µM [rising, single point]"
CCn1c(CCC(=O)Nc2cc(F)ccc2C)nc2cc(S(=O)(=O)N(C)C)ccc21,7.76,"0.0517 µM [rising, full curve, poor fit]","0.0731 µM [rising, full curve, poor fit]"
O=P(c1ccccc1)(c1ccccc1)c1ccc(O)cc1,26.4,–,–
Cc1cc(NC(=O)CS(=O)(=O)c2cn(C)c3ccccc23)no1,5.15,–,"0.13 µM [falling, full curve, poor fit]"
COc1cc(/C=C2\SC(=Nc3c(C)n(C)n(-c4ccccc4)c3=O)NC2=O)ccc1O,12.3,–,"4.11 µM [rising, full curve, poor fit]"
COc1ccccc1/C=C/C(=O)NCC(=O)N/N=C(/C)c1ccc(Cl)cc1,-1.79,–,"1.16 µM [rising, full curve]"
COc1cccc(NC(=O)COC(=O)c2cc(S(=O)(=O)N3CCOCC3)ccc2C)c1,110,"0.00461 µM [rising, full curve, poor fit]",–
CN(C(=O)CSc1nnc(C(F)(F)F)n1N)C1CCS(=O)(=O)C1 (stereo unspecified),-21.6,–,"20.6 µM [falling, single point]"
Cc1cc(-c2nnc3n2N=C(c2ccc(F)cc2)CS3)n[nH]1,–,"6.51 µM [rising, single point]","1.84 µM [rising, partial curve, poor fit]"
CN(C)S(=O)(=O)c1ccc(C(=O)OCCCN=C2NS(=O)(=O)c3ccccc32)cc1,-24.5,–,"4.61 µM [falling, single point]"
O=C(CO/N=C/c1ccc(OC(F)F)cc1)NCc1ccco1,-15,–,"0.58 µM [falling, full curve]"
Cc1ccsc1/C=N/n1c(C2CCCCC2)n[nH]c1=S,-55.4,"13 µM [falling, partial curve]","13 µM [falling, partial curve]"
O=C(Nc1ccc(-c2cn3ccsc3n2)cc1)c1ccc(F)c(S(=O)(=O)N2CCOCC2)c1,–,"1.46 µM [rising, partial curve]","0.731 µM [rising, full curve]"
Cc1ccc(-c2nc(CS(=O)CC(=O)NCc3ccc(Cl)cc3)c(C)o2)cc1 (stereo unspecified),-35,"29.1 µM [falling, single point]","29.1 µM [falling, single point]"
O=C(COc1ccccc1Cl)NCCCNC(=O)c1cnccn1,32.9,"3.66 µM [rising, full curve, poor fit]",–

# Some entries already given with just AC50 [2] and cell number change [%]:
Structure (SMILES)	AC50 [2]	cell number change [%]
CCCCN1/C(=C/c2ccc3ccccc3[n+]2CC)Sc2ccccc21	3.26 µM [falling, full curve]	-49.8
CC1CN(C(=S)Nc2ccc(Cl)cc2)CC(C)O1 (stereo unspecified)	–	-6.08
